We go through 16 compounds from PubChem BioAssay AID2685 (National Center for Advancing Translational Sciences (NCATS), 2010).

The AC50 is the midpoint of the concentration-response curve, whichever way the signal moves. A high value points to activity only at high concentration.

The structures appear in SMILES notation. The list shows a part of the results. Further columns of the screen follow, without active or inactive calls. The list favours compounds with an active or inconclusive main result. The note in brackets gives the kind of curve behind each potency; many fits are weak.

The experiment in a line: qHTS Assay for Lipid Storage Modulators in Drosophila S3 Cells.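 For cell number change: cells counted by Cell Tracker Red CMTPX staining in the red channel.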 The settings on record: BODIPY lipid droplet fluorescence, 18-24 h; for cell number change: measured here: cell count max response, cells fed with added oleic acid. The method in brief:
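Drosophila S3 cells got compounds at several concentrations plus oleic acid (400 uM solution). Laser-scanning cytometry with 488 nm excitation read lipid droplets at 500-530 nm and cells at 575-640 nm. Percent activity was relative to 20 uM Triacsin C.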

The mark [1] stands for this setting: measured here: lipid fluorescence (Fed channel) AC50, cells fed with added oleic acid.
The mark [2] stands for this setting: measured here: cell number channel AC50, cells fed with added oleic acid.

As for `O=C(NCCO)c1ccc2nc(-c3ccco3)c(-c3ccco3)nc2c1`, the cell number change is 25.7%.

As to `Cc1sc2ncnc(NCC(c3ccco3)N3CCCC3)c2c1C` (stereo unspecified), the cell number change was -4.9%. Also, the AC50 under setting [1] is 2.06 µM [falling, partial curve].

As to `O=C(COC(=O)C(O)c1ccccc1)NC12CC3CC(CC(C3)C1)C2` (stereo unspecified), the cell number change is -6.8%. For the same compound, the AC50 under setting [1] was 5.8 µM [falling, full curve, poor fit].

Turning to `Cc1c(C(=O)N2CCC(n3nccc3NC(=O)C3CC3)CC2)[nH]c2ccc(Cl)cc12`, the cell number change amounted to 5.38%. Besides, under setting [2], the AC50 was 4.61 µM [rising, single point]. For the same compound, the half-maximal activity concentration (AC50) under setting [1] was 29.1 µM [falling, single point].

As to `CN1C(=O)C(C)(C)c2cc(S(=O)(=O)N3CCC(C(=O)Nc4ccc(Cl)cc4)CC3)ccc21`, the cell number change is -1.8%.

On to `CCc1cc2c(SCC(=O)C(C#N)=C3N(C)c4ccccc4N3C)ncnc2s1`, for which the cell number change amounted to 56.3%. In addition, the AC50 under setting [2] is 20.6 µM [rising, partial curve, poor fit]. Moreover, under setting [1], the concentration at half-maximal activity (AC50) was 20.6 µM [rising, partial curve].

Take `COc1ccc(C2=NN(C(=O)c3ccncc3)C(c3ccccc3O)C2)cc1` (stereo unspecified): the cell number change came out at 6.67%. Also, the half-maximal activity concentration (AC50) under setting [1] is 4.61 µM [rising, partial curve].

For `O=C(Oc1cccc2cccnc12)c1ccc(Br)o1`, the cell number change is -4.56%.

Consider `Cn1c(CCNC(=O)c2cc(COc3ccc(F)c(F)c3)on2)nc2ccccc21`, for which the cell number change was -7.31%. For the same compound, the AC50 under setting [1] was 0.651 µM [falling, single point].

As for `CCOC(=O)N1CCC(NC(=O)c2ccc3c(c2)sc2nc(-c4cccc(OC)c4)cn23)CC1`, the cell number change is -34.5%. Moreover, the AC50 under setting [2] was 18.4 µM [falling, single point]. The concentration at half-maximal activity (AC50) under setting [1] was 20.6 µM [falling, single point].

With `Cc1cccnc1NC(=O)Nc1cccc2ccccc12`, the cell number change stood at 94.7%. Under setting [2], the AC50 was 2.31 µM [rising, full curve]. Also, the half-maximal activity concentration (AC50) under setting [1] is 7.31 µM [rising, partial curve].

As to `Cc1ccc(-c2csc(NC(=O)c3ccc(S(=O)(=O)N4CCc5ccccc54)cc3)n2)cc1`, the cell number change amounted to 16.4%. Also, the concentration at half-maximal activity (AC50) under setting [1] was 1.16 µM [rising, full curve, poor fit].

For the compound `CCc1ccc(-n2nnnc2SCC(=O)Nc2ccc(NC(C)=O)cc2)cc1`, the cell number change came to 16.1%. Moreover, the half-maximal activity concentration (AC50) under setting [1] was 16.4 µM [falling, single point].

Consider `COc1ccccc1CC(=O)Nc1ccc(-c2noc(COc3ccc(Br)cc3)n2)cc1`, for which the AC50 under setting [2] was 0.651 µM [rising, single point].

Consider `CN(C)C=Nc1ncc2c3ccccc3n(CCN(C)C)c2c1C#N`, for which the cell number change is 1.55%. For the same compound, the concentration at half-maximal activity (AC50) under setting [1] is 1.64 µM [rising, full curve, poor fit].

Turning to `COC(=O)C1=C(C)N(C)C(=S)N(C)C1c1cccc(Br)c1` (stereo unspecified), the cell number change is -36.2%.
